In PubChem BioAssay AID1794845 (National Center for Advancing Translational Sciences (NCATS), 2023):
Out of some 6,900 compounds screened, fewer than 10 were called active. The call rests on the fitted dose curve; in most records, active means well fitted curve in the direction sought with a large enough effect; inconclusive means small, poorly fitted or top-dose-only effect, or another doubt; inactive means no such curve, though single readings can be large or run the other way. The list shows a part of the results.

Chains of the proteins cited; added tags and fusions are not shown. Lines headed by an entry give the natural chain unless they say otherwise; changes in a name come on top.
UniProt C7C422: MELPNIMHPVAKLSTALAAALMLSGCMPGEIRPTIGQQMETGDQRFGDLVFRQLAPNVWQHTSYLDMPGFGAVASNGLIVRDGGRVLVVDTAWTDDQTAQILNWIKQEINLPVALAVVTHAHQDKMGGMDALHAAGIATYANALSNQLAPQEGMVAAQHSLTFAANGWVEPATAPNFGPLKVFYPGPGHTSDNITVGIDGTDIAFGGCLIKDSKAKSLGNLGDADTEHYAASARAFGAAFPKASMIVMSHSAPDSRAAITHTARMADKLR

These molecules were tested against Metallo-beta-lactamase type 2 (Klebsiella pneumoniae) (UniProt C7C422) (assay: qHTS to identify inhibitors of the New Delhi Metallo-beta-lactamase (NDM): primary screen against the NCATS Gemini Collection). Conditions: NDM-1 enzyme, meropenem hydrolysis, absorbance 300 nm; at 38.4 µM (top of the series) unless noted.
From the text: Assay Submitter (PI): James Inglese Ph.D., Patricia Dranchak Ph.D., Mahesh Aitha Ph.D. Assay Development and Screening Technology Laboratory (ADST) National Center for Advancing Translational Sciences (NCATS), Rockville, MD National Institute of Health (NIH), Bethesda, Maryland The metallo-beta-lactamases (MBL) are a main antibiotic resistance mechanism evolved by bacteria. There is an urgent clinical need for MBL inhibitors to mitigate this growing threat. To support a machine-based learning study, qHTS has been used to experimentally test inhibitors identified by prediction tools.
PROTOCOL TABLE (as described by Inglese et al., 2007) SEQUENCE No. (e.g., 1, 2, 3, etc.); […] (e.g., enzyme, Incubation, Reagent, etc.); VALUE; DESCRIPTION 1; NDM-1; 4 uL of 3 nM enzyme [2 nM final] in 50 mM HEPES (pH 7.0), 1 uM […], 0.01% Tween20; Use BioRaptr to dispense into Aurora black, clear bottom low base 1536-well plates 2; Compounds; 23 nL; Use Pin Tool (Wako) to transfer DMSO control and library compounds in DMSO 3; Incubate; >30 min 4; Reagent; 2 uL of 150 uM meropenem [50 uM final] 5; Incubate; 30 min. 6; Detector; Absorbance at 300 nm (bandwidth = 5 nm, 25 flashes/well) on Tecan Infinity NOTES (numbers refer to sequence above) 1; Column 1 of each plate received assay buffer without enzyme and columns 2-48 received enzyme for a final assay concentration of 2 nM. 2; Control plate contained DMSO in columns 1, 2, 3, and 4. 3; Compound interaction with enzyme. 4; Meropenem substrate was prepared in the same assay buffer as step 1 for a final assay concentration of 50 uM and added to all wells across the assay plates. 5; Substrate interaction with enzyme, plateau phase of kinetics. 6; Default reader settings were applied for absorbance read at 300 nm, bandwidth = 5 nm, 25 flashes/well. References: Inglese J, Shamu CE, Guy RK. 2007. Reporting data from high-throughput screening of small-molecule libraries. Nat Chem Biol. doi:10.1038/nchembio0807-438 Yasgar A, Shinn P, Jadhav A, Auld D, Michael S, Zheng W, Austin CP, Inglese J, Simeonov A. 2008. Compound Management for Quantitative High-Throughput Screening. J Lab Autom 13:79 - 89. doi:10.1016/j.jala.2007.12.004
Further: % of control where 0% means no effect.

Row | SMILES | activity % (negative = inhibition)
1 | COc1ccc(CC(=O)N2C[C@@H](C(=O)O)[C@H](c3ccccc3)C2)c(OC)c1 | inactive: -10.9%
2 | CNC(=O)[C@@H]1C[C@@H](O)CN1C1CCN(C(=O)CCc2nc3ccccc3s2)CC1 | inactive: -1.22%
3 | COCC(=O)NC1(Cc2cc(-c3ccc(OC)cc3)on2)COC1 | inactive: 10.3% [at 57.5 µM]
4 | CCc1ccc(NC(=O)Cn2nc3n(c2=O)CCCC3)cc1 | inactive: -0.266%
5 | CNC(=O)[C@@H]1CN(C(=O)Cn2nc(C(F)(F)F)cc2C)C[C@H]1CO | inactive: 55.8%
6 | CC(C)CN1C(=O)N(Cc2ccccn2)C(=O)C12CCN(Cc1ccc3c(c1)CCO3)CC2 | inactive: 8.1%
7 | O=C(CC1COCCN1)N1CCC2(CCC(=O)N(CCc3ccccc3)C2)CC1 (stereo not drawn) | inactive: 9.68%
8 | CSc1nccc(N2CCC(c3nccn3Cc3cccnc3)CC2)n1 | inactive: 0.802%
9 | Cc1cnc(CC2CCCN(C(=O)N(C)C)C2)n1C(C)C (stereo not drawn) | inactive: 0.126%
10 | COCCN1C(=O)[C@H]2CN(Cc3ccc(C)s3)C[C@H]2C1=O | inactive: -0.313%
11 | c1ccc(-c2noc(CC3CCOC4(CCN(Cc5cccnc5)CC4)C3)n2)cc1 (stereo not drawn) | inactive: 28.6%
12 | CCCC1(CO)CCCN(CC(=O)NC(C)(C)CC)C1 (stereo not drawn) | inactive: 3.11%
13 | O=C(NCc1cc2n(n1)CCCNC2)c1ccc(Cn2cnnn2)cc1 | inactive: 1.78%
14 | CN(Cc1ccccc1)Cc1cn([C@H]2CO[C@H]3[C@@H]2OC[C@@H]3NCc2ccccc2)nn1 | inactive: 8.03% [at 57.5 µM]
15 | CN(C)CCN1CC2(CCN(C(=O)CCCS(N)(=O)=O)CC2)OC1=O | inactive: -0.482%
16 | O=C(NCCc1ccc(F)cc1)c1cc(CN2CCOCC2)on1 | inactive: -0.279%
17 | Cc1cccc(C(=O)N2CCCCCCN(C)C(=O)[C@@H]3CCC[C@@H]32)c1 | inactive: 16.9%
18 | CN(Cc1ccno1)Cc1cn(C)nc1-c1ccc(C2CCCCC2)cc1 | inactive: 1.48%
19 | COc1cccc(CN[C@H]2[C@H](O)[C@H](O)C[C@@H]2c2ccc(N3CCOCC3)nc2)c1 | inactive: -4.89% [at 57.5 µM]
20 | CN1CCCCCCN(C(=O)c2cc(CN3CCOCC3)on2)[C@H]2CCC[C@H]2C1=O | inactive: 3.95%
21 | CN(c1cc(=O)c2ccnc(-c3cncnc3)c2o1)C1CCOCC1 | inactive: 24% [at 57.5 µM]

Row | SMILES | activity % (negative = inhibition)
22 | O=C1CC(c2noc(COc3ccccc3)n2)CN1C1CCCCC1 (stereo not drawn) | inactive: 9.88%
23 | O=C1CCCCC(C(=O)N2CCOCC2)N1 (stereo not drawn) | inactive: -1.86%
24 | CC(C)NC(=O)C1CCCN1c1nc2ncccc2o1 (stereo not drawn) | inactive: 21.4% [at 57.5 µM]
25 | O=C1CN(Cc2ccc(-c3cc(F)cc(F)c3)cc2)CCN1c1cc(Cl)ncn1 | inactive: 12.4%
26 | COc1ccccc1OCCNC(=O)c1ccc2c(c1)N(C)C1CCCCN1C2=O (stereo not drawn) | inactive: 13.8%
27 | COc1ccccc1CC(=O)N1CCC2(CC1)N=C(c1ccc(C)cc1)NO2 | inactive: 15.1%
28 | CC[C@@]1(O)CCN(C(=O)c2ccc(CSc3ccccc3)o2)C[C@H]1O | inactive: 1.35%
29 | O=C(NC1CCCCC1)O[C@@H]1CO[C@H]2[C@@H]1OC[C@@H]2n1nnnc1-c1ccc2c(c1)OCCO2 | inactive: 0.948%
30 | COc1cccc(-c2noc(CCCc3nc(C4CCOC4)no3)n2)c1 (stereo not drawn) | inactive: 0.584%
31 | COc1ccc(C2=NOC3(CCCN([S+](=O)([O-])c4cccc(C(F)(F)F)c4)C3)C2)cc1 (stereo not drawn) | inactive: -1.7%
32 | CCn1ccc(C(=O)N2CCC(C3CCN(C(C)=O)CC3)C2)n1 (stereo not drawn) | inactive: -3.43%
33 | O=C1NCCOCCCN(S(=O)(=O)c2ccccc2)[C@H]2CCCC[C@@H]12 | inactive: 77.7%
34 | O=C(c1sccc1Cl)N1CCn2nc(C(O)c3ccccc3)cc2C1 (stereo not drawn) | inactive: -3.42%
35 | Cc1cnc(C)c(-c2cc(O)c3c(c2)CNCCO3)n1 | inactive: 0.329%
36 | CN1CC[C@H]2CN(C(=O)c3ccccc3-n3cccn3)C[C@@]2(C(=O)O)C1 | inactive: 2.24%
37 | O=C(c1ccnnc1)N1CCC2(CCN(Cc3ccccn3)CC2)C(CO)C1 (stereo not drawn) | inactive: 3.88%
38 | O=C1NCCCCCN(Cc2cn[nH]c2-c2ccc(F)cc2)[C@H]2CCC[C@@H]12 | inactive: 4.44%
39 | Cc1nc(C)c(C(=O)NCCc2ncc(C)n2C2CC2)s1 | inactive: 0.113%
40 | CN(C)Cc1nnc(C2CC(NC(=O)Cc3noc4ccccc34)C2)n1C (stereo not drawn) | inactive: 3.59%
41 | COc1ccc(CNC(=O)C[C@@H]2C[C@H]3O[C@H](CNC4CCNCC4)[C@@H](O)[C@H]3O2)cc1 | inactive: 7.35% [at 57.5 µM]
42 | COc1ncccc1-c1cc2c(nc1OC)nc(CCc1ccccc1)n2C | inactive: 10.2% [at 57.5 µM]

Row | SMILES | activity % (negative = inhibition)
43 | CCCc1cc(CN(C)C(=O)c2ccc3c(c2)[nH]c(=O)n3C2CCC(O)CC2)[nH]n1 (stereo not drawn) | inactive: -0.083%
44 | CC1(C)Cc2nc(C(C)(C)C)ncc2C(NC(=O)CCCN2CCCC2=O)C1 (stereo not drawn) | inactive: -3.79%
45 | Cc1noc2c(Nc3ccc(C(N)=O)cc3)cc(-c3ccsc3)nc12 | inactive: 46.4% [at 57.5 µM]
46 | COCC[C@]1(O)CCN(C(=O)Nc2ccc(F)c(C(F)(F)F)c2)C[C@H]1C | inactive: -2.48%
47 | CC(C)=CCn1c(-c2cc(C)oc2C)cn2cc(C(=O)N(C)CC(C)C)nc2c1=O | inactive: 2.4%
48 | COc1ccc(N(C)C(=O)c2c(C)oc3c2CN(Cc2ccc(F)cc2)CC3)cc1 | inactive: -1.33%
49 | O=C(C[C@@H]1O[C@H](CNC(=O)Nc2ccccc2)[C@@H](O)[C@H]1O)NC1CC1 | inactive: 11.6% [at 57.5 µM]
50 | O=C(Nc1ccccc1)N1CCC(N(C(=O)C2CC2)C2CCOCC2)CC1 | inactive: 1.35%
51 | O=C(NC1CC1)C1CCc2nnc(-c3cccnc3)n21 (stereo not drawn) | inactive: -1.25% [at 57.5 µM]
52 | CCO[C@H]1CN(C(=O)C(C)(C)Oc2ccc3c(c2)CCC3)C[C@@H]1O | inactive: 1.81%
53 | Cc1nc2ccccn2c1C(=O)NC(C)c1cnn(-c2ccccn2)c1C (stereo not drawn) | inactive: 8.57%
54 | COc1ccc(S(=O)(=O)NCC2Cn3cccc3C(=O)N2Cc2ccccc2)cc1 (stereo not drawn) | inactive: 15.7%
55 | Clc1ccc2oc([C@H]3CCN(Cc4ccccn4)C3)nc2c1 | inactive: 32.8% [at 57.5 µM]
56 | O=C(NCC1CN(C(=O)c2cnccn2)CC12CCOCC2)N1CCCC1 (stereo not drawn) | inactive: -2.99%
57 | Cc1nc2cc(S(=O)(=O)N3CCOCC3)ccc2n1CCNC(=O)C1CC1 | inactive: 6.14%
58 | Cc1ccc(CN2CCc3nc(C(=O)Nc4cccnc4)oc3CC2)o1 | inactive: 37.7% [at 57.5 µM]
59 | O=C(NCc1cccc(C(F)(F)F)c1)c1nc2sccn2c1-c1ccccc1 | inactive: 4.77%
60 | COc1ccc(CNC(=O)O[C@H]2COCCN(c3nc4ccccc4s3)C2)cc1 | inactive: 12.3% [at 57.5 µM]
61 | Cc1ccncc1C(=O)N1CCCn2ccnc2C1c1ccccc1 (stereo not drawn) | inactive: 14.2%
62 | O=C(Nc1ccc(Cl)nc1)c1cccn2cncc12 | inactive: 16% [at 57.5 µM]
63 | Cc1cc(C)n(C2CCN(c3nccc(-c4ccccn4)n3)C2)n1 (stereo not drawn) | inactive: 25.4%

Row | SMILES | activity % (negative = inhibition)
64 | O=C1NCC2(CCN(C(=O)c3ccccc3C3CCNC3)CC2)O1 (stereo not drawn) | inactive: 1.34%
65 | CC(=O)NCCCC(=O)N1CCOC2(CCN(C(=O)NC(C)C)CC2)C1 | inactive: 7.15%
66 | O=C(c1cnc(C23CC4CC(CC(C4)C2)C3)[nH]c1=O)N1C[C@H]2CNC[C@H]2C1 | inactive: 10.4%
67 | O=[S+]1([O-])c2cccnc2OC(Cn2cccc2)CN1Cc1cccc(F)c1 (stereo not drawn) | inactive: -9.25% [at 16.1 µM]
68 | CSCC(=O)N1C[C@@H](NC(=O)NC(C)C)C[C@H]1C(=O)N[C@H](Cc1c[nH]c2ccccc12)C(N)=O | inactive: 10.2%
69 | N#Cc1cccc(-c2ccnc(N[C@H]3CO[C@H]4[C@@H]3OC[C@H]4OC(=O)NC3CCCCC3)n2)c1 | inactive: 22.5%
70 | Cc1ccc(CCN2CCCCC23Cc2ccccc2CN([S+](C)(=O)[O-])C3)cc1 (stereo not drawn) | inactive: -10.2%
71 | COc1ccc(NC(=O)N[C@H]2[C@H](O)[C@@H](Sc3ccccc3)[C@@H]3OC[C@H]2O3)cc1 | inactive: 1.2% [at 57.5 µM]
72 | CC(=O)N1CCCN(c2ncnc3c2CN(c2ccc([N+](=O)[O-])cc2)C(=O)N(C)C3)CC1 | inactive: 9.56%
73 | O=C(c1cccnc1OC1CCN(Cc2ccccn2)C1)N1CCCCC1 (stereo not drawn) | inactive: 2.36%
74 | COC(=O)[C@H]1CCCN1C(=O)[C@@H]1C[C@@H](NS(=O)(=O)c2cccs2)CCN1C(=O)COCC(=O)O | inactive: -2.68%
75 | CCn1nc(C)c(-c2cc(C(=O)NCCc3noc(COC)n3)no2)c1C | inactive: 3.87%
76 | CC(C)CCN1CCC(O)(c2csc(CN(C)Cc3cccnc3)n2)CC1 | inactive: 33.5% [at 57.5 µM]
77 | NCCc1cccc(CN2CCCC(CO)(CC3CC3)C2)c1 (stereo not drawn) | inactive: -4.92%
78 | COc1ccc(CN2C[C@H]3CN(S(=O)(=O)c4ccc(C)cc4)CCN3C2=O)cc1 | inactive: -1.04% [at 57.5 µM]
79 | CN(C)c1nc2c(c(N3C[C@@H](CN4CCCC4)[C@@H](CO)C3)n1)CCCC2 | inactive: -5.65%
80 | Cc1nccn1CCC1CCN(c2nccc(-c3ccccn3)n2)CC1 | inactive: -11%
81 | Cc1ccccc1C(=O)N(C)C1CCCc2ccccc21 (stereo not drawn) | inactive: -0.841% [at 57.5 µM]
82 | COCC(=O)N1CCC(C(=O)NC(C)c2ccc3c(c2)OCCCO3)CC1 (stereo not drawn) | inactive: 3.88%
83 | COc1ccc(C(=O)N2CCC23Cc2ccccc2NC3=O)cc1 (stereo not drawn) | inactive: 2.42% [at 57.5 µM]

Individual results from above:
Under activity % (negative = inhibition), `COc1ccc(CN2C[C@H]3CN(S(=O)(=O)c4ccc(C)cc4)CCN3C2=O)cc1` has the entry inactive: -1.04% [at 57.5 µM]
Under activity % (negative = inhibition), `COC(=O)[C@H]1CCCN1C(=O)[C@@H]1C[C@@H](NS(=O)(=O)c2cccs2)CCN1C(=O)COCC(=O)O` has the entry inactive: -2.68%
